Test results as given in publication doi:10.1101/176586.
Results are given in words; binding and its absence hold for the method and conditions named.

Sequences of proteins named here, by UniProt entry; tags and fusion partners are left off. A change or cut given only in a name is not applied to a line headed by its entry. A line that says so, or that is headed by a name, gives the form on record, which may keep a tag or linker.
WT Vinculin (2-1066) (P18206-2, form named): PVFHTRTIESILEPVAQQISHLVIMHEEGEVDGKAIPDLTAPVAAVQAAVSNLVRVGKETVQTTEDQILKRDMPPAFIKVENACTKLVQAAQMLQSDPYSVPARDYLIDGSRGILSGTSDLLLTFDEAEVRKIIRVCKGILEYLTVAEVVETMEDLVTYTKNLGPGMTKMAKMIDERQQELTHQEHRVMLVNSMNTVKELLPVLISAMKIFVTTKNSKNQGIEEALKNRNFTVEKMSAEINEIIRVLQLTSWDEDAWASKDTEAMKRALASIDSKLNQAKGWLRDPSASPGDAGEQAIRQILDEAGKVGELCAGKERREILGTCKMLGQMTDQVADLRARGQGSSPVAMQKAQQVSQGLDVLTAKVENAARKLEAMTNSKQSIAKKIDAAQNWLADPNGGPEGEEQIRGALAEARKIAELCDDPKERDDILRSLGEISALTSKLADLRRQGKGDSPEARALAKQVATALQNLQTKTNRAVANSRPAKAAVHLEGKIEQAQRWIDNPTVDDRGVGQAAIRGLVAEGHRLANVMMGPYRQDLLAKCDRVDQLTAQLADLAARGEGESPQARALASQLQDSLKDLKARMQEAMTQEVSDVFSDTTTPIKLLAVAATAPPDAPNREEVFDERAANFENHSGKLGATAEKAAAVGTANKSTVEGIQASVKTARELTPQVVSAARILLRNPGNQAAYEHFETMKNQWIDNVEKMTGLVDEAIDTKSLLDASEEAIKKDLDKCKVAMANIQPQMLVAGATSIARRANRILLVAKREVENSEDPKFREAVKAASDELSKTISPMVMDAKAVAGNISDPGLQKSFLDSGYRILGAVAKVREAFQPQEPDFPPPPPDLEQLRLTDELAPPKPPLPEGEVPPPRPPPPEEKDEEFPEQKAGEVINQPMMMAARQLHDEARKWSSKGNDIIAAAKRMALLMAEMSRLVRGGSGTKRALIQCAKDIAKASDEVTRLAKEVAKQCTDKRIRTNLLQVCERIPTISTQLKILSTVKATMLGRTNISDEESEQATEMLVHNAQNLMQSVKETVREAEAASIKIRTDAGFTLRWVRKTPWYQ

Target: WT Vinculin (2-1066) (human) (UniProt P18206)
Experiment: native MS

**Q.** Which binding does the source give for “WT Vinculin (2-1066) (from UniProt P18206-2 2-1066)” here?
**A.** Its binding is “no binding (tested: 10 μM)”.
